## Screening data, single-dose tests

Chains of the proteins cited; added tags and fusions are not shown.
UniProt P9WNZ1, whole entry: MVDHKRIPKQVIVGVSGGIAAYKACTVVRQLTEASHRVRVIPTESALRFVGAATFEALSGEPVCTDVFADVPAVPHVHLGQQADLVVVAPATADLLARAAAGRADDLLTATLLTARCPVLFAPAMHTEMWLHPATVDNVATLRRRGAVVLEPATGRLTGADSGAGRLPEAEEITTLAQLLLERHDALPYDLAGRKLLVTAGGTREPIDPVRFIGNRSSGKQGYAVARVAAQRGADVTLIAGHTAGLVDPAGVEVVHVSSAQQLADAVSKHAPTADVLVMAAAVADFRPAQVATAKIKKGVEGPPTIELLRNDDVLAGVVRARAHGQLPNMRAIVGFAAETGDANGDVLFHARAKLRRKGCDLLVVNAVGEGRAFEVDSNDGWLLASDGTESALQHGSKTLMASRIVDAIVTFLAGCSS

Source: ChEMBL document CHEMBL3988442, “University of Dundee, Small-Polar-MMV Screening Library” (2021).

Each number is a percent effect as filed. How 0% and 100% were set is not recorded. Most values in the screen are low, and negative values occur. This is an unselected part of the compounds tested. Two or more numbers in one place are separate tests of the same structure; such repeats can differ widely. A dash means the value is not listed here; it may have been measured.

Leishmania in macrophages: 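Cell assay of Leishmania donovani living inside macrophages; the read-out is not stated. Tested at 30 µM. The record gives no direction; compounds that gave an IC50 in retests scored well above the rest, so higher reads as stronger inhibition. Size under these conditions: about 69,000 compounds, about 1,000 of them at 50% or above in at least one test.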
CoaBC: 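Coenzyme A biosynthesis protein CoaBC, Mycobacterium tuberculosis (UniProt P9WNZ1). Enzyme assay of CoaBC with a phosphate dye (Biomol Green) read at 650 nm. Compounds at 30 µM. Higher reads as stronger inhibition, judged from the few compounds that gave an IC50. Most strong results did not repeat in a second test. Of about 67,000 compounds tested this way, about 40 (0.06%) reached 50% or more in at least one test.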

structure: COc1cc2c(cc1OC)S(=O)(=O)N(Cc1ccccc1)C2=O
Leishmania in macrophages: 23.97%

structure: COCC1CC2(CCN(C(=O)c3cnc4ccccc4c3)CC2)CO1.O=C(O)C(F)(F)F (stereo not given)
Leishmania in macrophages: 18.2%

structure: Cc1cnn(CC2CN(CCCS(C)(=O)=O)CCO2)c1 (stereo not given)
Leishmania in macrophages: -2.065%
CoaBC: 3.353%

structure: COc1ccc(CN2CC[C@@H](O)[C@@H]2Cc2ccccc2)cc1
CoaBC: 0.4038%

structure: COCC1CC2(CCN(Cc3nccn3C)CC2)CN1c1ncccn1 (stereo not given)
CoaBC: -9.446%

structure: Cc1cc(CN(C)C(=O)CN2CC3(CCNCC3)OC2=O)n(C)n1
Leishmania in macrophages: 11.32%

structure: CCc1ccc(S(=O)(=O)N2Cc3c(CN(C)C)nn(C)c3C2)cc1
CoaBC: 2.599%

structure: c1csc(CNc2ccccc2Cn2cncn2)c1
Leishmania in macrophages: 9.811%
CoaBC: 2.823%

structure: Cc1ccc2nc(C(=O)N3CCCC[C@]4(C)NC(=O)CCC[C@H]34)cn2c1
CoaBC: 4.136%

structure: Cn1cnc2c1C(COCc1ccccc1)N(Cc1ccncc1)CC2.O=C(O)C(F)(F)F.O=C(O)C(F)(F)F.O=C(O)C(F)(F)F (stereo not given)
Leishmania in macrophages: 4.839%

structure: Fc1ccc(Cn2ncc3c2CN(c2noc(C4CC4)n2)C3)cc1
Leishmania in macrophages: -50.06%
CoaBC: 5.913%

structure: O=S(=O)(Cc1ccc(F)cc1)NCc1nnc2n1CCC2
Leishmania in macrophages: 5.455% and 1.508%
CoaBC: 2.785%

structure: O=C(NC1CCC1)[C@@H]1CCO[C@@H]2CCN(CCc3ccccc3)C[C@H]21
CoaBC: 6.004%

structure: COc1cc(N2CC3(CCN(S(C)(=O)=O)C3)C2)ncn1
CoaBC: -0.2105%

structure: COCc1noc(-c2ccc(N(C)Cc3cn(C)nc3C)nc2)n1
Leishmania in macrophages: -6.195%
CoaBC: 0.1206%

structure: Cc1ccc(N2CCCC(NCc3ccc4c(c3)CCO4)C2)nn1 (stereo not given)
Leishmania in macrophages: -15.32%
CoaBC: 3.842%

structure: c1ccc(NCc2cnc3n2CCN(CC2CCOC2)CC3)nc1 (stereo not given)
CoaBC: -5.477%

structure: Cc1csc(C(C)(C)NCCNS(C)(=O)=O)n1
Leishmania in macrophages: 22.38%
CoaBC: -4.348%

structure: COc1cc2nc3n(c(=O)c2cc1OC)CCN(C(C)=O)CC3
Leishmania in macrophages: 15.93%
CoaBC: 2.778%

structure: CC1(C)CC(=O)c2cnc3nc(N4CCCC4)[nH]c(=O)c3c2C1
Leishmania in macrophages: 2.506%
CoaBC: -8.726%

structure: COC(=O)C1CCN(C(=O)Cn2ccc(-c3ccc(F)cc3)n2)CC1
Leishmania in macrophages: 18.65%
CoaBC: 4.175%

structure: COCCN1CCC2(CC1)CC1(CCN(S(C)(=O)=O)CC1)N(C)C2=O.O=C(O)C(F)(F)F
Leishmania in macrophages: 14.81%

structure: COCCOc1ccc(NC(=O)N(CCO)C2CC2)cn1
Leishmania in macrophages: 20.33%
CoaBC: -0.2484%

structure: O=C(CCCC1CCCC1)NS(=O)(=O)CC1CC1
Leishmania in macrophages: -14.22%
CoaBC: 25.18% and 10.58%

structure: Cc1cnn(CCNCC(O)COc2ccc(C#N)cc2)c1 (stereo not given)
Leishmania in macrophages: 11.38%
CoaBC: 3.856%

structure: O=C1COc2cc(C(=O)N3CCCC(n4cccn4)C3)ccc2N1 (stereo not given)
Leishmania in macrophages: 7.147%
CoaBC: 0.8149%

structure: COCC1c2c(cnn2CC2CC2)CCN1Cc1cc(C)on1 (stereo not given)
CoaBC: -3.576%

structure: CCN(C)c1ccc(CNC(=O)c2cc(C(N)=O)cs2)cc1F
Leishmania in macrophages: 18.45%

structure: O=C(O)c1c(-c2ccncc2)ncc2c1CCN(CC1CCOC1)C2 (stereo not given)
CoaBC: 4.332%

structure: CC(C)n1nc(CN2CCCC2=O)c2c1CN(C(=O)c1ccc[nH]1)C2
Leishmania in macrophages: 30.18%
CoaBC: 0.7426%

structure: CCn1nc(C)c(NC(=O)CN(C)C(C)c2nccs2)c1C (stereo not given)
Leishmania in macrophages: 28.47%
CoaBC: 6.163%

structure: O=C(NCCOc1ncc(Cl)cc1Cl)c1ccncc1
Leishmania in macrophages: 9.719%
CoaBC: 0.207%

structure: Cc1cc(C)n(C2CCCN(C(=O)CN(C)c3cnccn3)C2)n1 (stereo not given)
Leishmania in macrophages: 36.25%
CoaBC: 4.97%

structure: O=C(CCc1cccs1)NCC1CCCN1c1cccnn1 (stereo not given)
Leishmania in macrophages: 29.83%
CoaBC: -27.98%

structure: CCOC(C)c1noc(CN2CCN(c3ccncc3)CC2)n1 (stereo not given)
Leishmania in macrophages: 16.21%
CoaBC: 2.657%

structure: O=C(CN1CCOCC1)N1CCC(c2cc(N3CCCC3)ncn2)CC1
Leishmania in macrophages: 28.23%
CoaBC: 6.352%

structure: c1ccc(C2CN(C3CC3)CC3(CCN(Cc4ncc[nH]4)CC3)C2)cc1 (stereo not given)
Leishmania in macrophages: 51.92%
CoaBC: 0.3681%

structure: O=C(Cc1csc(-c2ccco2)n1)N1CCN(c2nccs2)CC1
Leishmania in macrophages: 10.13%
CoaBC: 11.32%

structure: [H][C@@]12CCN(S(C)(=O)=O)C[C@@]1([H])O[C@H](C(=O)N1CCOCC1)C2
Leishmania in macrophages: -1.391%

structure: CNC(=O)[C@@H](c1ccccc1)N1CCC[C@H]1C(=O)NC1CCCCC1
CoaBC: 5.192%

structure: Cc1cc(C)n(CC2CCCCN2C(=O)c2sccc2C#N)n1 (stereo not given)
Leishmania in macrophages: -16.62%
CoaBC: 4.701%

structure: Cc1nc(NCc2nnc(C)n2C)c2c(CC(C)C)csc2n1
Leishmania in macrophages: 17.24%
CoaBC: 3.56%

structure: Cc1cccc(-c2c[nH]c(C3CCCN3C(=O)Cn3cc(C)cn3)n2)c1 (stereo not given)
Leishmania in macrophages: -14.7%
CoaBC: 2.871%

structure: [H][C@]12CC[C@]([H])(CN(C(=O)c3cnccn3)C1)N(C(=O)Cc1ccsc1)C2
Leishmania in macrophages: 22.89%

Repeated from the top, 3 entries:

| structure | Leishmania in macrophages | CoaBC |
|---|---|---|
| `COc1cc2c(cc1OC)S(=O)(=O)N(Cc1ccccc1)C2=O` | 23.97% | - |
| `COCC1CC2(CCN(C(=O)c3cnc4ccccc4c3)CC2)CO1.O=C(O)C(F)(F)F` (stereo not given) | 18.2% | - |
| `Cc1cnn(CC2CN(CCCS(C)(=O)=O)CCO2)c1` (stereo not given) | -2.065% | 3.353% |